PubChem BioAssay AID743402 (Broad Institute, 2014)
The campaign covered roughly 1,200 compounds. About 140 (12%) were called active.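 The calls were made as follows: active = fitted curve falls past -35% activity change at a dose under twice the top valid dose, in every replicate test; inconclusive = replicate tests disagree on the call; inactive = the rest, including activity in the opposite direction.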 Most of the strongest results are missing from this list.

Assay: CFTR-F508del correctors, dose response, FRT cells, YFP quenching, cherry-pick (AID 743402);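 also: compounds act as correctors raising surface CFTR-F508del before acute activation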
Settings: FRT CFTR-F508del YFP iodide quenching, 24 h, channel opened with forskolin and a potentiator; at 26 µM (top of the series) unless noted

Activity change, negative = more quenching (active), inactive:
CN(C)S(=O)(=O)c1ccc2c(c1)/C(=C/c1cc3c([nH]1)CCCC3)C(=O)N2 -7.96%
C[C@@H]1CN([C@H](C)CO)C(=O)c2cc(NC(=O)Cc3cn(C)c4ccccc34)ccc2O[C@@H]1CN(C)Cc1ccc(Cl)c(Cl)c1 12.3% [at 23.5 µM]
C=C1C(=O)O[C@@H]2[C@H]1[C@@H](OC(=O)/C(C)=C/C)C/C(C)=C\C(=O)/C=C(\C)[C@@H]2O -3.12%
O=S1(=O)CCN(C(CO)c2ccccc2)CC1 (centres undefined) -1.51%
S=C(NCc1ccco1)NCC1CCCO1 (centres undefined) 10%
Cn1c(CC(=O)NN)c(Sc2ccccc2)c2ccccc21 6.67%
Oc1cc2c(cc1O)C(c1ccccc1)CNCC2 (centres undefined) -4.17%
Cc1ccc(-c2nc(CSCC(=O)Nc3cc(C)on3)c(C)o2)cc1 3.33%
C[C@@](Cc1ccc(O)c(O)c1)(NN)C(=O)O 6.46%
CC(=O)NC(c1ccc(Cl)cc1Cl)c1ccc2cccnc2c1O (centres undefined) 16.2%
Cc1cc(NC(=O)CN2C(=O)NC3(CCCCCC3)C2=O)ccc1Br 6.67%
COC(=O)[C@H](CCSC)NC(=O)Cn1cc(C)c(=O)[nH]c1=O 13.3%
Cc1cnc(NC(=O)c2ccc3c(c2)OCCO3)s1 -20%
COc1cccc(/C=N/Nc2ncnc(Cl)c2N)c1O -3.33%
O=C(CN(Cc1ccccc1)S(=O)(=O)c1ccc(F)cc1)NCc1cccnc1 0%
COc1ccc(-n2nnnc2C(c2ccccc2)N2CCN(C/C=C/c3ccccc3)CC2)cc1 (centres undefined) 21.9%
C#Cc1cc(N2CCN(C(=O)c3ccoc3)CC2)n2nc(-c3cccc(Cl)c3)cc2n1 12.5%
COc1cccc(-c2cnc3c(NC(C)=O)cc(-c4cc(F)ccc4OC)cn23)c1 -10%
COc1ccc(NC(=O)C(CC(=O)O)Cc2ccc(Cl)cc2)cc1 (centres undefined) 12.9%
O=C(CCNC(=O)c1ccco1)Nc1nc(-c2ccccc2)cs1 9.79%
CC(Sc1nc2ccccc2c(=O)n1C)C(=O)Nc1ccc2c(c1)OCCO2 (centres undefined) 17.5%
Cc1ccc2c(CN3CCN(S(=O)(=O)c4ccc(Cl)cc4)CC3)cc(=O)oc2c1C -12.7%
O=C(Nc1ccc(Cl)cn1)c1cccc2ccccc12 -8.33%
COc1cc(NC(=O)N2CCNC2=O)cc(C(=O)Nc2cccc(C(F)(F)F)c2)c1 -3.33%
Cc1ccccc1S(=O)(=O)N1C[C@@H]2N[C@H](C1)C2c1ccc(-c2cccc(C#N)c2)cc1 (some centres undefined) 0%
C[C@@H]1CN([C@@H](C)CO)C(=O)Cc2cc(N(C)C)ccc2O[C@@H]1CN(C)Cc1ccccc1 0%
CCN(Cc1ccccc1)c1ccc(/C=N/N=C(N)N)cc1 13.1%
CN(CC(=O)Nc1cccc(S(=O)(=O)N2CCCC2)c1)CC(=O)Nc1ccc(F)c(F)c1F 13.3%
O=C(N/N=C/c1cccs1)c1cccc(NC(=O)c2ccccc2Cl)c1 23.3%
CC(=O)N1CCc2c(sc(NC(=O)c3ccc4c(c3)OCCO4)c2C#N)C1 4.95%
N=c1sccn1CC(=O)Nc1ccc(S(N)(=O)=O)cc1 -13.9%
O=C(c1ccc(Br)cc1)c1cc([N+](=O)[O-])ccc1N1CCOCC1 0%
CN(Cc1c(F)cccc1Cl)C(=O)c1ccc(NC(=O)CC2SC(N3CCCCC3)=NC2=O)cc1 (centres undefined) 3.33%
O=C(NC(Cc1ccccc1)C(=O)N1CCN(S(=O)(=O)c2ccccc2F)CC1)c1ccccc1 (centres undefined) 16%
COc1ccc(C#Cc2ccc([C@H]3[C@H]4CN(C(=O)c5ccncc5)CCCCN4[C@H]3CO)cc2)cc1 12.9%
COc1cc(/C=C/C(=O)O)cc(S(=O)(=O)Nc2ccc3cn[nH]c3c2)c1OC 3.33%
Cn1nccc1C(=O)N/N=C/c1c(O)ccc2ccccc12 6.67%
CC1=C(C(=O)NC2CCCCC2C)C2(CCC(C)CC2)OC1=O (centres undefined) 10.7%
COc1ccc(Cc2nnc(NC(=O)c3ccc(F)cc3)s2)cc1OC 13.3%
Cn1cccc1C(=O)OCC(=O)NCc1ccc2c(c1)OCO2 -0.208%
Cc1cccc(N2CCN(Cc3cn(C)nc3-c3ccccc3F)CC2)n1 10%
CCS(=O)(=O)N1CC(=O)N2[C@H](C1)[C@@H](c1ccc(C#CCC(C)C)cc1)[C@@H]2CO 5.3%
COc1ccc(S(=O)(=O)N(C(=O)C(C)C)c2ccc3oc(=O)sc3c2)cc1 12.9%
CN1c2ccc(-c3ccc(F)cc3)cc2[C@H]2[C@H](CCN2S(=O)(=O)c2cccc(F)c2)[C@@H]1CO -28.6% [at 9 µM]
C[C@H](CO)N1C[C@H](C)[C@H](CN(C)C(=O)c2ccc3c(c2)OCO3)Oc2cc(C#Cc3ccccc3F)ccc2S1(=O)=O 5.3%
Cc1cc(C(=O)N/N=C/c2ccc([N+](=O)[O-])cc2)c2ccccc2n1 7.96%
C=CCN=c1scc(C)n1/N=C/c1ccc(O)c(O)c1 0%
CCOC(=O)C1CCCN(c2nc3ccccc3nc2NS(=O)(=O)c2ccc(C)cc2)C1 (centres undefined) 3.33%
O=C(COc1ccc(F)cc1Cl)Nc1cccc(S(=O)(=O)N2CCCCCC2)c1 6.25%
CCOC(=O)N1CCN(S(=O)(=O)c2ccc3c(c2)C(C)C(=O)N3)CC1 (centres undefined) 3.12%
Cc1cc2c(s1)Nc1ccccc1N=C2N1CCN(C)CC1 3.12%
COCCOC(=O)c1[nH]c2c(c1C)C(=O)CC(c1cccs1)C2 (centres undefined) -5.56%
COc1ccc(NC(=O)N[C@@H]2CC[C@@H](CCn3cc(-c4ccc(F)cc4)nn3)O[C@@H]2CO)cc1 15.8% [at 23.5 µM]
Cc1cccc(NC(=O)CN2CCN(C(=O)CN3C(=O)NC4(CC(C)CC(C)(C)C4)C3=O)CC2)c1C (centres undefined) 13.3%
CC(OC(=O)CCCC(=O)Nc1ccc(F)cc1)C(=O)c1ccccc1 (centres undefined) 0%
COc1ccc(C2CC(c3cccc(Br)c3)=NN2c2ccc(S(N)(=O)=O)cc2)cc1 (centres undefined) 8.28%
CCc1cccc(NC(=O)COC(=O)c2cc([N+](=O)[O-])ccc2N2CCOCC2)c1 16.4%
COc1ccc(C(=O)c2ccc(N(C)C)cc2)c(OC)c1 11.1%
CN1c2ccc(-c3ccc(C#N)cc3)cc2[C@H]2[C@H](CCN2S(=O)(=O)c2cccc(F)c2)[C@H]1CO 0%
c1ccc(CCNc2nc(-c3ccccn3)nc3ccccc23)cc1 6.67%
CCOC(=O)c1c(NC(=O)CN2C(=O)NC3(CCC(C)CC3)C2=O)sc(C)c1CC (centres undefined) 12.5%
O=C(Cc1ccsc1)OCC(=O)c1ccccc1 3.33%
CN(C)c1ccc2c(c1)[C@@H]1C[C@@H](CC(=O)NCc3ccc(Oc4ccccc4)cc3)O[C@H](CO)[C@@H]1O2 10.2%
C[C@@H]1CN([C@@H](C)CO)C(=O)c2cccc(NC(=O)Nc3ccc4c(c3)OCO4)c2O[C@H]1CN(C)S(=O)(=O)c1ccccc1 13.4%
O=C(Nc1ccccc1)c1nc[nH]c1C(=O)Nc1ccccc1F -4.74%
Cc1cccc2c(N=Nc3ccc(S(=O)(=O)Nc4ccc(Cl)cc4)cc3[N+](=O)[O-])c(O)[nH]c12 6.67%
CNC(=O)C1CC(=O)N(c2ccc(OCC(=O)Nc3ccccc3)cc2)C1 (centres undefined) 6.46%
Clc1ccc(N(CC2CO2)CC2CO2)cc1 (centres undefined) -16.7%
Fc1ccccc1/C=N/NC(=S)Nc1ccc(Cl)cc1Cl 16.7%
COc1ccc(S(=O)(=O)N2CC[C@@H]3[C@@H](CO)Nc4ccc(C5=CCCCC5)cc4[C@@H]32)cc1 6.46%
Cc1ccc(-c2ccc([C@H]3[C@@H](CO)N4CCCCN(C(=O)Nc5cccc(F)c5)C[C@H]34)cc2)cc1 -3.12%
O=C(CSc1nc2nn(-c3ccccc3)c(=O)c-2c2n1CCCCC2)Nc1ccc(OC(F)F)cc1 16%
CCN(CC)CCCNc1nc2ccccc2c2[nH]c3ccc(OC)cc3c12 -10%
O=C(CN1CCN(S(=O)(=O)c2ccccc2)CC1)Nc1ccccc1Cl 12.2%
COc1ccc(Nc2nc(-c3sc(C)nc3C)cs2)c(OC)c1 -10%
O=c1c2ccccc2oc2cc(-c3ccc4[nH]ccc4c3)ccc12 -16.7%
C[C@H](CO)N1C[C@H](C)[C@H](CN(C)C(=O)NC2CCCCC2)Oc2cc(C#Cc3cccc(F)c3)ccc2S1(=O)=O 10.3%
CNC(=O)CC1C(=O)N(c2ccc(F)cc2)C(=S)N1NC(=O)c1ccc(Cl)cc1 (centres undefined) 7.96%
COc1cc(/C=N/NC(=O)c2cc(-c3c(C)nn(-c4ccccc4)c3C)n[nH]2)ccc1O 20%
O=C(NC(=S)Nc1ccc(-c2ccccc2)cc1)c1ccccc1 0%
Cc1ccc(NC(=O)Cc2nc(-c3c[nH]c(C(=O)N4CCCC4)c3)cs2)c(C)c1 6.67%
COc1ccc(CC(=O)Nc2nccs2)cc1S(=O)(=O)N1CCOCC1 9.58%
Cc1ccc(S(=O)(=O)N2CCCCC2CCNC(=O)C(=O)NCc2ccccc2)cc1 (centres undefined) 27%
Cc1ccc(S(=O)(=O)N2C[C@H]3[C@H]4C(=O)N(C)C(=O)[C@H]4CC(=O)[C@H]3[C@@H]2c2ccccc2F)cc1 6.67%

Among those listed so far, these have bromine.
Activity change, negative = more quenching (active), inactive:
Cc1cc(NC(=O)CN2C(=O)NC3(CCCCCC3)C2=O)ccc1Br 6.67%
O=C(c1ccc(Br)cc1)c1cc([N+](=O)[O-])ccc1N1CCOCC1 0%
COc1ccc(C2CC(c3cccc(Br)c3)=NN2c2ccc(S(N)(=O)=O)cc2)cc1 (centres undefined) 8.28%

Some of these compounds in order of heavy-atom count, falling.
Activity change, negative = more quenching (active), inactive:
Cc1cccc2c(N=Nc3ccc(S(=O)(=O)Nc4ccc(Cl)cc4)cc3[N+](=O)[O-])c(O)[nH]c12 6.67%
O=C(COc1ccc(F)cc1Cl)Nc1cccc(S(=O)(=O)N2CCCCCC2)c1 6.25%
COc1ccc(C(=O)c2ccc(N(C)C)cc2)c(OC)c1 11.1%
